Our source for the binding values is patent US20200016315A1 (SYDDANSK UNIVERSITET, published 2020).

Chains of the proteins cited; added tags and fusions are not shown. Lines headed by an entry give the natural chain unless they say otherwise; changes in a name come on top.
UniProt P69905: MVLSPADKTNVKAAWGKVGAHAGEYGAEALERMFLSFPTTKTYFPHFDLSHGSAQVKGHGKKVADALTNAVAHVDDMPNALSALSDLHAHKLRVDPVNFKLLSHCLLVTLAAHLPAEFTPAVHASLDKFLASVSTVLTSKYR

The target of this test is hemoglobin (human) (UniProt P69905). Nature of the test: removal of added hemoglobin from plasma by protein-Sepharose, H-index.

These are yes or no findings as the source states them, for the method shown. Some binding calls cover weakened binding; strength is not graded here.

B1: IsdH N1N2N3 (residues 82-655), wild type (receptor)
chain: NYPAADESLKDAIKDPALENKEHDIGPREQVNFQLLDKNNETQYYHFFSIKDPADVYYTKKKAEVELDINTASTWKKFEVYENNQKLPVRLVSYSPVPEDHAYIRFPVSDGTQELKIVSSTQIDDGEETNYDYTKLVFAKPIYNDPSLVKSDTNDAVVTNDQSSSVASNQTNTNTSNQNISTINNANNQPQATTNMSQPAQPKSSTNADQASSQPAHETNSNGNTNDKTNESSNQSDVNQQYPPADESLQDAIKNPAIIDKEHTADNWRPIDFQMKNDKGERQFYHYASTVEPATVIFTKTGPIIELGLKTASTWKKFEVYEGDKKLPVELVSYDSDKDYAYIRFPVSNGTREVKIVSSIEYGENIHEDYDYTLMVFAQPITNNPDDYVDEETYNLQKLLAPYHKAKTLERQVYELEKLQEKLPEKYKAEYKKKLDQTRVELADQVKSAVTEFENVTPTNDQLTDLQEAHFVVFESEENSESVMDGFVEHPFYTATLNGQKYVVMKTKDDSYWKDLIVEGKRVTTVSKDPKNNSRTLIFPYIPDKAVYNAIVKVVVANIGYEGQYHVRIINQDI
modifications: coupled through primary amines to CNBr-activated Sepharose
notes: In the assay the protein was immobilized on Sepharose; also called IsdH N1N2N3 wt; N1N2N3-Seph; not shown: vector-encoded His6 tag of pET-15b
In the case of B1, the binding result is recorded as “binds”.
